According to the supplement of paper PMC6335503:
± gives the standard deviation of the averaged measurements.

Test system: Tasmanian devil fibroblasts
Assay: cell viability, percent of DMSO control (CellTiter-Glo); higher = more viable cells
Conditions: 72 h
Protocol: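 Eight-point dose titration of 41 screen hits in triplicate wells on four Tasmanian devil DFTD tumour cell lines (T1-T4) and devil fibroblasts, 384-well plates. Viability was read by CellTiter-Glo (ATP) after 72 h at 37 °C. Percent of control per plate: DMSO wells = 100%, positive-control wells = 0%.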

| Compound | cell viability (0.00617 µM) | cell viability (0.0185 µM) | cell viability (0.0556 µM) | cell viability (0.166667 µM) | cell viability (0.5 µM) | cell viability (1.5 µM) | cell viability (4.5 µM) | cell viability (13.5 µM) | cell viability (0.0309 µM) | cell viability (0.0926 µM) | cell viability (0.277778 µM) | cell viability (0.833333 µM) | cell viability (2.5 µM) | cell viability (7.5 µM) | cell viability (22.5 µM) | cell viability (67.5 µM) |
| --- | --- | --- | --- | --- | --- | --- | --- | --- | --- | --- | --- | --- | --- | --- | --- | --- |
| CC#CC(=O)Nc1ccc2ncnc(Nc3cccc(Br)c3)c2c1 | 93.7 ± 31% | 97 ± 15% | 113 ± 50% | 78 ± 4% | 96.9 ± 21% | 83 ± 16% | 70.8 ± 9.4% | 102 ± 20% | – | – | – | – | – | – | – | – |
| COc1cc2ncnc(Nc3ccc(Cl)cc3F)c2cc1OC | 83.1 ± 3.1% | 78.3 ± 11% | 128 ± 37% | 141 ± 28% | 101 ± 36% | 94.2 ± 13% | 77.2 ± 15% | 134 ± 8.8% | – | – | – | – | – | – | – | – |
| COc1cc2ncnc(Nc3cccc(Br)c3)c2cc1OC.Cl | 140 ± 27% | 85 ± 4.5% | 96.3 ± 9.2% | 118 ± 11% | 120 ± 52% | 89 ± 6.8% | 89.7 ± 11% | 102 ± 23% | – | – | – | – | – | – | – | – |
| COc1cccc2c1C(=O)c1c(O)c3c(c(O)c1C2=O)C[C@@](O)(C(=O)CO)C[C@@H]3O[C@H]1C[C@H](N)[C@@H](O)[C@H](C)O1.Cl | 147 ± 23% | 135 ± 73% | 139 ± 54% | 116 ± 6.9% | 100 ± 25% | 69.7 ± 6.3% | 56.7 ± 2.8% | 11.7 ± 6.8% | – | – | – | – | – | – | – | – |
| COc1cccc2c1C(=O)c1c(O)c3c(c(O)c1C2=O)C[C@@](O)(C(=O)CO)C[C@@H]3O[C@H]1C[C@H](N)[C@H](O)[C@H](C)O1.Cl | 126 ± 29% | 129 ± 33% | 105 ± 33% | 146 ± 58% | 107 ± 33% | 86.2 ± 10% | 81.4 ± 21% | 39.4 ± 19% | – | – | – | – | – | – | – | – |
| COc1cc2ncnc(Nc3ccc(F)c(Cl)c3)c2cc1NC(=O)/C=C/CN1CCCCC1 | 104 ± 12% | 122 ± 57% | 118 ± 4% | 107 ± 19% | 99.7 ± 1.9% | 102 ± 14% | 131 ± 56% | 144 ± 10% | – | – | – | – | – | – | – | – |
| CS(=O)(=O)CCNCc1ccc(-c2ccc3ncnc(Nc4ccc(OCc5cccc(F)c5)c(Cl)c4)c3c2)o1.Cc1ccc(S(=O)(=O)O)cc1 | 80.4 ± 17% | 112 ± 42% | 93.2 ± 24% | 115 ± 40% | 106 ± 24% | 88.2 ± 8.4% | 126 ± 43% | 132 ± 63% | – | – | – | – | – | – | – | – |
| Cn1nc(-c2ccccn2)nc2c(=O)n(C)c(=O)nc1-2 | 138 ± 50% | 106 ± 3.6% | 94.2 ± 12% | 120 ± 16% | 116 ± 33% | 103 ± 12% | 98.7 ± 6% | 3.56 ± 4.2% | – | – | – | – | – | – | – | – |
| C=CC(=O)N1CCC[C@@H](n2nc(-c3ccc(Oc4ccccc4)cc3)c3c(N)ncnc32)C1 | 105 ± 58% | 103 ± 34% | 127 ± 46% | 85.6 ± 10% | 76 ± 5.7% | 81.4 ± 11% | 53.1 ± 16% | 45.7 ± 3% | – | – | – | – | – | – | – | – |
| O=c1c(=NNc2nnn[nH]2)c(=O)c2ccccc12 | 112 ± 56% | 113 ± 44% | 105 ± 21% | 106 ± 18% | 125 ± 16% | 117 ± 45% | 29.3 ± 27% | -3.64 ± 18% | – | – | – | – | – | – | – | – |
| CCN1CCN(Cc2ccc(-c3cc4c(N[C@H](C)c5ccccc5)ncnc4[nH]3)cc2)CC1 [AEE788] | 77.5 ± 4.3% | 77.4 ± 9.7% | 134 ± 62% | 122 ± 47% | 110 ± 57% | 81.7 ± 17% | 91.4 ± 40% | -3.31 ± 6.2% | – | – | – | – | – | – | – | – |
| COc1cc2ncnc(Nc3cccc(Cl)c3)c2cc1OC [AG-1478] | 107 ± 21% | 103 ± 2.7% | 110 ± 16% | 102 ± 15% | 106 ± 15% | 110 ± 23% | 115 ± 30% | 137 ± 31% | – | – | – | – | – | – | – | – |
| COc1cc2ncnc(Nc3cccc(Cl)c3F)c2cc1OC(=O)N1CCN(C)C[C@H]1C [AZD3759] | 95.5 ± 9.6% | 93.3 ± 10% | 124 ± 30% | 154 ± 33% | 87.1 ± 14% | 81.4 ± 8.4% | 85.1 ± 6.9% | 127 ± 13% | – | – | – | – | – | – | – | – |
| CNC(=O)CN1CCC(Oc2cc3c(Nc4cccc(Cl)c4F)ncnc3cc2OC)CC1 [AZD8931 (Sapitinib)] | 123 ± 43% | 110 ± 45% | 108 ± 46% | 98.3 ± 18% | 134 ± 28% | 124 ± 65% | 92.2 ± 20% | 84 ± 20% | – | – | – | – | – | – | – | – |
| CN(C)C/C=C/C(=O)Nc1cc2c(Nc3ccc(F)c(Cl)c3)ncnc2cc1O[C@H]1CCOC1 [Afatinib (BIBW2992)] | 122 ± 80% | 114 ± 51% | 106 ± 63% | 100 ± 19% | 141 ± 31% | 109 ± 35% | 96.7 ± 45% | -4.62 ± 4.9% | – | – | – | – | – | – | – | – |
| C=CC(=O)Nc1cc2c(Nc3ccc(F)c(Cl)c3)ncnc2cc1OCCCN1CCOCC1 [Canertinib (CI-1033)] | 93.8 ± 25% | 99.4 ± 8.1% | 149 ± 68% | 118 ± 47% | 144 ± 85% | 77.3 ± 9.5% | 96.5 ± 37% | 5.54 ± 6.2% | – | – | – | – | – | – | – | – |
| Nc1ccc(F)cc1NC(=O)c1ccc(CNC(=O)/C=C/c2cccnc2)cc1 [Chidamide] | – | – | – | – | – | – | – | – | 122 ± 51% | 103 ± 14% | 124 ± 32% | 114 ± 23% | 104 ± 13% | 74.1 ± 6.2% | 71.1 ± 26% | 68.2 ± 28% |
| CC1(C)CC(=O)C2=C(C1)NC(=S)NC2c1cccc(O)c1 (centres undefined) [Dimethylenastron] | 110 ± 34% | 107 ± 36% | 117 ± 20% | 105 ± 9% | 102 ± 2% | 137 ± 37% | 126 ± 29% | 121 ± 10% | – | – | – | – | – | – | – | – |

Only cell viability (1.5 µM), cell viability (0.0185 µM) and cell viability (67.5 µM), for 2 of the compounds above:
Compound	cell viability (1.5 µM)	cell viability (0.0185 µM)	cell viability (67.5 µM)
COc1cc2ncnc(Nc3cccc(Br)c3)c2cc1OC.Cl	89 ± 6.8%	85 ± 4.5%	–
CN(C)C/C=C/C(=O)Nc1cc2c(Nc3ccc(F)c(Cl)c3)ncnc2cc1O[C@H]1CCOC1 [Afatinib (BIBW2992)]	109 ± 35%	114 ± 51%	–
